Results as given in patent US10308642B2, “Anti-hepatitis B virus agent” (FUJIFILM Toyama Chemical Co., Ltd., priority 2015, dated 2019).
Some entries share one result that the patent states for a list of compounds.

system: HBV; test: Anti-HBV assay in HepG2.2.15 cells (HBV DNA by real-time PCR, HBsAg by chemiluminescent enzyme immunoassay in culture supernatant); type: cell-based, hepatitis B virus (HBV); details: statement in words
Protocol: The anti-HBV activity of compounds 1 to 16 was evaluated as follows by using HepG2.2.15 cells (Proc. Natl. Acad. Sci. USA, 84, 1005-1009, 1987), which are obtained by introducing the HBV genome into hepatoblastoma cell line, HepG2, and persistently produce the virus.
The following was used as a medium: DMEM/F-12,GlutaMAX(manufactured by Invitrogen)+5 μg/mL insulin (manufactured by Wako)+1% penicillin/streptomycin(manufactured by Sigma)+10 mmol/L HEPES(manufactured by Sigma)+50 μmol/L hydrocortisone(manufactured by Sigma)+10% FBS
A mixture of each test compound with dimethyl sulfoxide (DMSO) was added to the medium to obtain a final concentration of DMSO of 1% (v/v), and thus, test solutions containing the test compound in various concentrations were prepared. In addition, a test solution obtained by adding DMSO alone to the medium to obtain a final concentration of 1% (v/v) was prepared as a control without drug.
(1) The HepG2.2.15 cells were suspended in the medium and prepared a cell suspension at 1.5×10^5 cells/mL. The suspension was seeded in a 96-well microtiter plate (100 μL/well) and the plate was incubated in a 5% CO2 incubator at 37° C. for 1 day.
(2) After removing the culture supernatant, the cells were washed twice with PBS(−) (100 μL/well) and then once with the medium (100 μL/well).
(3) Each test solution was added to the plate (100 μL/well), and the plate was incubated in a 5% CO2 incubator at 37° C. for 3 days.
(4) After removing the culture supernatant, the test solution was added to the plate again (100 μL/well) and the plate was incubated in a 5% CO2 incubator at 37° C. for 3 days.
(5) The culture supernatant was collected and treated with a mixture of Buffer AL (manufactured by QIAGEN) and Proteinase K (manufactured by Invitrogen). The amount of HBV DNA in the solution was quantified by real-time PCR. In addition, the amount of HBsAg (hepatitis B surface antigen) in the culture supernatant was quantified by chemiluminescent enzyme immunoassay using a Lumipulse HBsAg-HQ (manufactured by Fujirebio Inc.). The relative viral load (%) of a well with the compound to a well without the compound was calculated. An IC50 of each compound was calculated using the FORECAST function (linear regression method) of Microsoft Excel 2007 by plotting the logarithm of the concentration against the relative viral load as a real number.

SMILES	anti-HBV activity
O=C(O)c1cn(-c2ccc(F)cc2)c(-c2ccc(N3CCCC3)cc2)cc1=O [Compound 1]	excellent anti-HBV activity
O=C(O)c1cn(-c2ccc(F)cc2)c(-c2sccc2-c2ccc([N+](=O)[O-])cc2)cc1=O [Compound 2]	excellent anti-HBV activity
CN(C)c1ccc(-c2cc(=O)c(C(=O)O)cn2-c2cccc(F)c2)cc1 [Compound 3]	excellent anti-HBV activity
O=C(O)c1cn(-c2ccc(F)cc2F)c(-c2ccc(N3CCCC3)cc2)cc1=O [Compound 4]	excellent anti-HBV activity
COc1ccc(-n2cc(C(=O)O)c(=O)cc2-c2ccc(N(C)C)cc2)cc1 [Compound 5]	excellent anti-HBV activity
O=C(O)c1cn(-c2ccc(F)cc2)c(-c2cc3ccccc3s2)cc1=O [Compound 6]	excellent anti-HBV activity
CN(C)c1ccc(-c2cc(=O)c(C(=O)O)cn2-c2ccccc2F)cc1 [Compound 7]	excellent anti-HBV activity
CN(C)c1ccc(-c2cc(=O)c(C(=O)O)cn2-c2ccc3c(c2)OCO3)cc1 [Compound 8]	excellent anti-HBV activity
O=C(O)c1cn(-c2ccc(F)cc2F)c(-c2cc3ccccc3s2)cc1=O [Compound 9]	excellent anti-HBV activity
CN(C)c1ccc(-c2cc(=O)c(C(=O)O)cn2-c2ccccc2O)cc1 [Compound 10]	excellent anti-HBV activity
Cc1cc(-n2cc(C(=O)O)c(=O)cc2-c2ccc(N(C)C)cc2)ccc1O [Compound 11]	excellent anti-HBV activity
COc1ccc(-n2cc(C(=O)O)c(=O)cc2-c2ccc(N(C)C)cc2)c(F)c1 [Compound 12]	excellent anti-HBV activity
Cc1cc(O)ccc1-n1cc(C(=O)O)c(=O)cc1C1CCC(Br)C(Br)C1 (stereo not shown) [Compound 13]	excellent anti-HBV activity
O=C(O)c1cn(-c2ccc(F)cc2)c(-c2ccc(-c3cccs3)cc2)cc1=O [Compound 14]	excellent anti-HBV activity
CN(C)c1ccc(-c2cc(=O)c(C(=O)O)cn2-c2cc(Cl)c(O)c(Cl)c2)cc1 [Compound 15]	excellent anti-HBV activity
CNc1ccc(-c2cc(=O)c(C(=O)O)cn2-c2ccc(F)cc2)cc1 [Compound 16]	excellent anti-HBV activity
